Laboratory results as given in publication PMC6142817, “New Urea Derivatives Are Effective Anti-senescence Compounds Acting Most Likely via a Cytokinin-Independent Mechanism” (Frontiers in Plant Science, 2018).

Test system: endogenous cytokinins in detached wheat leaves
Assay: Cytokinin analysis of leaves from the WLSA (UHPLC-MS/MS)
Design: species or system Triticum aestivum
Settings: 10 μM compound; for Cytokinin level: Total / Cytokinin level: Total bases / Cytokinin level: Total cZ-types / Cytokinin level: Total tZ-types / Cytokinin level: cZ / Cytokinin level: cZOG / Cytokinin level: tZ / Cytokinin level: tZR: detached wheat leaves, 5 days in the dark, S.D. in brackets

## COCCNC(=O)Nc1cnns1 [ASES, 1-(2-methoxy-ethyl)-3-1,2,3-thiadiazol-5-yl-urea]
WLSA leaves
  cZOG content, fold increase compared to TDZ-treated leaves: approximately 2.2 fold
  tZ content, fold higher than in fresh control leaves: 6.0 fold
  tZ-riboside content, fold higher than in fresh control leaves: 25 fold
  total cytokinin content, fold increase compared to DMSO-treated leaves: 1.5 fold
  total cytokinin content, fold increase compared to TDZ-treated leaves: 1.7 fold
  Cytokinin level: Total: 521.9 (132.6) pmol/g FW
  Cytokinin level: Total bases: 11.4 (0.3) pmol/g FW
  Cytokinin level: Total cZ-types: 499.1 (133) pmol/g FW
  Cytokinin level: Total tZ-types: 13.8 (0.8) pmol/g FW
  Cytokinin level: cZ: 3.0 (0.6) pmol/g FW
  Cytokinin level: cZOG: 474.7 (133.8) pmol/g FW
  Cytokinin level: tZ: 1.3 (0.1) pmol/g FW
  Cytokinin level: tZR: 7.0 (0.4) pmol/g FW

## O=C(Nc1ccccc1)Nc1cnns1 [TDZ, 1-phenyl-3-(1,2,3-thiadiazol-5-yl)urea, reference compound]
WLSA leaves
  tZ content, fold higher than in fresh control leaves: 8.8 fold
  tZ-riboside content, fold higher than in fresh control leaves: 25 fold
  Cytokinin level: Total: 305.3 (16.2) pmol/g FW
  Cytokinin level: Total bases: 12.0 (0.5) pmol/g FW
  Cytokinin level: Total cZ-types: 272.3 (16) pmol/g FW
  Cytokinin level: Total tZ-types: 17.6 (1.5) pmol/g FW
  Cytokinin level: cZ: 4.3 (0.7) pmol/g FW
  Cytokinin level: cZOG: 207.1 (3.3) pmol/g FW
  Cytokinin level: tZ: 1.8 (0.3) pmol/g FW
  Cytokinin level: tZR: 7.1 (1.8) pmol/g FW
